Reference: the supplement of paper PMC10849652
Some of the results follow.

By UniProt entry, the sequences of proteins in these tests, tags left out. Where a name states a change or a piece, a line headed by the entry shows the natural chain unless it says otherwise.
UniProt Q8TCY9: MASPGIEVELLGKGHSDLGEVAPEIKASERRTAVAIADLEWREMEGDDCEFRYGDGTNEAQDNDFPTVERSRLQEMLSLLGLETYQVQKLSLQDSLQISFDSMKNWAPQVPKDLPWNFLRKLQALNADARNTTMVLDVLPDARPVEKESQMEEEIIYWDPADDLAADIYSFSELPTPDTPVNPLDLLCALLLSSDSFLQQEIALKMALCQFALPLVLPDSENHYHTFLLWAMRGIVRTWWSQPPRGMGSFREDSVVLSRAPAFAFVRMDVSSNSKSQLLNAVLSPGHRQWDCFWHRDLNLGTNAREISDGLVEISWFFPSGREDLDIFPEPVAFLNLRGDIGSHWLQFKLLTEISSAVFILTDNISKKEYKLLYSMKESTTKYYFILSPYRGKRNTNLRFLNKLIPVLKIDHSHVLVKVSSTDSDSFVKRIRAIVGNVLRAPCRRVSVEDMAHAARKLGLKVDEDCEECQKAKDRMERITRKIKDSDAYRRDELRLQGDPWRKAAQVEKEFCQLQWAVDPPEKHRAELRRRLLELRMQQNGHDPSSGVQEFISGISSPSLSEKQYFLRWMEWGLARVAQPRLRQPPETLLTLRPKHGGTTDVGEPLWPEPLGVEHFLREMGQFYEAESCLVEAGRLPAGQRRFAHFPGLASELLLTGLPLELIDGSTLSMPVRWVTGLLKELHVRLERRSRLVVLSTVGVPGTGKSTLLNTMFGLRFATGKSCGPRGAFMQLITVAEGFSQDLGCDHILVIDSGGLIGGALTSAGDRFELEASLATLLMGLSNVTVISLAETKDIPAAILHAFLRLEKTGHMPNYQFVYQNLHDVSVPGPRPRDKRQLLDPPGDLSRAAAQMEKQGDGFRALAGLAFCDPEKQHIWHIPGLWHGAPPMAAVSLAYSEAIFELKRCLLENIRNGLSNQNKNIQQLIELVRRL
UniProt Q9ULK5: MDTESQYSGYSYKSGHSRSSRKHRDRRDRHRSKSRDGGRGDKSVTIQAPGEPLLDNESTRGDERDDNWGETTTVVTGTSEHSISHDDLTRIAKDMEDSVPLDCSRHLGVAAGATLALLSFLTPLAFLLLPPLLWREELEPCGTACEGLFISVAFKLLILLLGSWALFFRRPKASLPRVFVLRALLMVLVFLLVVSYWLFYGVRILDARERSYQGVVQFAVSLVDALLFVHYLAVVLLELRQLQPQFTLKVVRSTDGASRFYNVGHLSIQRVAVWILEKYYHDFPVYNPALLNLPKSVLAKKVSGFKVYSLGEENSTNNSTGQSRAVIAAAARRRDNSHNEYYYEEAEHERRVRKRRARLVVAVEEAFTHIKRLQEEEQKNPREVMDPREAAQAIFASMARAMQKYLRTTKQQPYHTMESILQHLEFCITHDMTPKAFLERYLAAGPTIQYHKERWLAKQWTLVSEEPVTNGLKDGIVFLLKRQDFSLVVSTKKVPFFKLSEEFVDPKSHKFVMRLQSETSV
UniProt Q68DE3: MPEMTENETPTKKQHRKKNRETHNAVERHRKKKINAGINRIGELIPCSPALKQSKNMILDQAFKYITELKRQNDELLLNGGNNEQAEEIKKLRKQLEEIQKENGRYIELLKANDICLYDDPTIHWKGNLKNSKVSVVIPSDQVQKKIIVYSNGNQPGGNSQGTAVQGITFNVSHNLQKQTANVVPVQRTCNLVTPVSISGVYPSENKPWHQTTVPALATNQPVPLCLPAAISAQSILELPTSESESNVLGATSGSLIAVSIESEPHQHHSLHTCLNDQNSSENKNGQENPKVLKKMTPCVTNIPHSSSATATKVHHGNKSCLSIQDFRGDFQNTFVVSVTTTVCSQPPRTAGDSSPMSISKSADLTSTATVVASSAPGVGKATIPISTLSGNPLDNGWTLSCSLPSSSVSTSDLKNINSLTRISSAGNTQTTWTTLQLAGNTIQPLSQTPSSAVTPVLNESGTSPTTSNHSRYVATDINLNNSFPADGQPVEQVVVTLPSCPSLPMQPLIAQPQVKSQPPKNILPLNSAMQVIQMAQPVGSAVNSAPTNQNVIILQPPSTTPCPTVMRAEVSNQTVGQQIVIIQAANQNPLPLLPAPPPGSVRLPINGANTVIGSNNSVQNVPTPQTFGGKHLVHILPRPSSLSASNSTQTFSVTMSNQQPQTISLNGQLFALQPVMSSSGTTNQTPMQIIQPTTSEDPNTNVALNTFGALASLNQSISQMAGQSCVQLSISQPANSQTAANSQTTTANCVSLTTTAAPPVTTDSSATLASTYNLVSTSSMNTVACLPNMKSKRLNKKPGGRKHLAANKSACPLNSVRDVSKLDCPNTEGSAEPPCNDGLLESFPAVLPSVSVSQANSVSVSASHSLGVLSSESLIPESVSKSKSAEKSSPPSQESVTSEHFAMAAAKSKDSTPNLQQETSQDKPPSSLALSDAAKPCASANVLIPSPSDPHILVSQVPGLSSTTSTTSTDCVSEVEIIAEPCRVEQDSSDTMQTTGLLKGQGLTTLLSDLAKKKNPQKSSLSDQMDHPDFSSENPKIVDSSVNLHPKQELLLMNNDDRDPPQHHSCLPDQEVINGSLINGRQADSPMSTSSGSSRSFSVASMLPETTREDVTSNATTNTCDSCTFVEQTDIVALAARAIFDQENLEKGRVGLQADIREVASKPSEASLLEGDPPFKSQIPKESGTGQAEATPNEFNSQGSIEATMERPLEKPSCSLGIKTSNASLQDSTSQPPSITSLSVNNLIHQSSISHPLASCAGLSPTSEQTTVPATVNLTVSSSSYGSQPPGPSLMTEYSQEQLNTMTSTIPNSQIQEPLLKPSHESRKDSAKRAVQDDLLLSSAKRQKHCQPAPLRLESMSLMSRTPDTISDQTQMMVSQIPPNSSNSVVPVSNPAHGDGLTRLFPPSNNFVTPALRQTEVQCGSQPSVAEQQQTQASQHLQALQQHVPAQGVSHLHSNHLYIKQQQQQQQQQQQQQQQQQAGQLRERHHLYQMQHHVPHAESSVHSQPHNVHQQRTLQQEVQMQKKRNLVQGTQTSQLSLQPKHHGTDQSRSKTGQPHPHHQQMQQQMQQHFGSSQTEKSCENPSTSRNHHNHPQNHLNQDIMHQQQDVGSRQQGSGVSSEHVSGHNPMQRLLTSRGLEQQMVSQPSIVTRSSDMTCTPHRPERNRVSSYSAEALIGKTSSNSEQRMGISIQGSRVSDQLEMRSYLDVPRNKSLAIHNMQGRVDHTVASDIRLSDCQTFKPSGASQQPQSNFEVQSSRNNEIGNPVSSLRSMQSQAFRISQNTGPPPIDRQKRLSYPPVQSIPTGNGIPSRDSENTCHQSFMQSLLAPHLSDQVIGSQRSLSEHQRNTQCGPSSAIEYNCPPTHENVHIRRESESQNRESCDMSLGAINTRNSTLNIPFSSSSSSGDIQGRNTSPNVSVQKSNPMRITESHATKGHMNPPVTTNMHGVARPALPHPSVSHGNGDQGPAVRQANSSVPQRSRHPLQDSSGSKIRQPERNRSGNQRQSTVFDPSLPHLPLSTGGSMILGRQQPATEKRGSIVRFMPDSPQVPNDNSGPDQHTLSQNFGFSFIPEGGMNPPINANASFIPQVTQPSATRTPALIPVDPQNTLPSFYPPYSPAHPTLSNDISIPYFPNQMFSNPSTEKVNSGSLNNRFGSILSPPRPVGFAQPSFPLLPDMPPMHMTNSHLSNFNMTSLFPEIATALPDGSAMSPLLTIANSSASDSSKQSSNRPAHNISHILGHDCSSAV
UniProt Q9NVE5: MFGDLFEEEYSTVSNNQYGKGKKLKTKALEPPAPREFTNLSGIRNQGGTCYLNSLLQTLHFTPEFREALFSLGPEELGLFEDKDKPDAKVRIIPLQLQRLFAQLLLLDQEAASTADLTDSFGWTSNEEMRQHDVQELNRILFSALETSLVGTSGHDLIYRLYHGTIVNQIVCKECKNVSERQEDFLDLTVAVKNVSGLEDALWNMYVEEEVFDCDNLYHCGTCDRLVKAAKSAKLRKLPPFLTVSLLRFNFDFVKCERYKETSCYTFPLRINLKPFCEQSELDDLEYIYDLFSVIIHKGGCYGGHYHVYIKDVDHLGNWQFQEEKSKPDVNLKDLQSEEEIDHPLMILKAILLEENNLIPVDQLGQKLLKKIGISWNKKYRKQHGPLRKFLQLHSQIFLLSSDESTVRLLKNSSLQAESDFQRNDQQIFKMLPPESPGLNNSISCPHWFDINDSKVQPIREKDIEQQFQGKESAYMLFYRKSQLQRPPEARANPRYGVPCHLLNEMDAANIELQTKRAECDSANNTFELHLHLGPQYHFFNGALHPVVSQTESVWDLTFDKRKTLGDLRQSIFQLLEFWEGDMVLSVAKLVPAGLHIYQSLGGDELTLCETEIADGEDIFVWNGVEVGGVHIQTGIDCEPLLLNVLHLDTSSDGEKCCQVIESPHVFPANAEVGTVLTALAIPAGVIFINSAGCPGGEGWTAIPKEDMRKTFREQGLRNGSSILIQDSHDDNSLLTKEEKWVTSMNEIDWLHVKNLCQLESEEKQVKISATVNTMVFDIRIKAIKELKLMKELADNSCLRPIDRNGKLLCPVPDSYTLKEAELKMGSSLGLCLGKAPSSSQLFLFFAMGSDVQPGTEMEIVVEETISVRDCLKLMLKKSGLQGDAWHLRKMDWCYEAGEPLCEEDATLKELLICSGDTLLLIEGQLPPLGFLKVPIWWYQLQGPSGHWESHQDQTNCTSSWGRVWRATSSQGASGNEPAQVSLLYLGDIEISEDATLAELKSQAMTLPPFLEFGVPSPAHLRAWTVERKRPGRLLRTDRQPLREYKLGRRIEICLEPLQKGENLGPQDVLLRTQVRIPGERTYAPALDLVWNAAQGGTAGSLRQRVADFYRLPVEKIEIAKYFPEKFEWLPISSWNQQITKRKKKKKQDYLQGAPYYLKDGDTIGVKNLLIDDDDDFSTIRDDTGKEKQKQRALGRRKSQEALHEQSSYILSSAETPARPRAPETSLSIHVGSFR

Experiments:
Assay in all cases: log2 fold change, soluble protein after heating vs DMSO (PISA); higher = thermal stabilisation; K562 lysate, 10 uM; active = over 0.2 and 3.5 SD of the protein, either way, in both replicates (recomputed)
[1] = compound: CCCS(=O)(=O)Nc1ccc(F)c(C(=O)c2c[nH]c3ncc(Cl)cc23)c1F
Method in brief: (§1)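 K562 pellets were dounce-homogenised in PBS pH 7.4 containing 1 mM MgCl2, and the crude extract, at 1 mg/mL protein, was exposed to 10 μM compound for 30 min. Aliquots were heated for 3 min across 48°C-58°C, pooled, brought to 0.5% NP-40 at 4°C and spun at 21,000xg for 90 min, with the supernatant taken as soluble protein. TMTpro 16plex LC-MS/MS with equalised channel sums quantified that protein. Values are log-two fold changes in thermal stability relative to solvent controls, taken from duplicates.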

barasertib = compound: CCN(CCCOc1ccc2c(Nc3cc(CC(=O)Nc4cccc(F)c4)[nH]n3)ncnc2c1)CCOP(=O)(O)O [barasertib]
Method in brief: as §1

[2] = compound: CC[C@@H]1C(=O)N(C)c2cnc(Nc3ccc(C(=O)NC4CCN(C)CC4)cc3OC)nc2N1C1CCCC1
Method in brief: as §1

volasertib = compound: CC[C@@H]1C(=O)N(C)c2cnc(Nc3ccc(C(=O)N[C@H]4CC[C@H](N5CCN(CC6CC6)CC5)CC4)cc3OC)nc2N1C(C)C [volasertib]
Method in brief: as §1

[3] = compound: CCn1c(C(=O)N(C2CC2)C2CC2)cc2c3c(ncn3C)c(Nc3cc(C)n(C)n3)nc21
Method in brief: as §1

[4] = compound: CCn1cc(-c2ccnc3[nH]c(-c4cccc(CN(C)C)c4)cc23)c(-c2ccc(NC(=O)N(C)C)cc2)n1
Method in brief: as §1

[5] = compound: CN1CCC(CNc2ccc3ncc(-c4cccc(OC(F)(F)F)c4)n3n2)CC1
Method in brief: as §1

saracatinib = compound: CN1CCN(CCOc2cc(OC3CCOCC3)c3c(Nc4c(Cl)ccc5c4OCO5)ncnc3c2)CC1 [saracatinib]
Method in brief: as §1

sotrastaurin = compound: CN1CCN(c2nc(C3=C(c4c[nH]c5ccccc45)C(=O)NC3=O)c3ccccc3n2)CC1 [sotrastaurin]
Method in brief: as §1

alvocidib = compound: CN1CC[C@H](c2c(O)cc(O)c3c(=O)cc(-c4ccccc4Cl)oc23)[C@H](O)C1 [alvocidib]
Method in brief: as §1

Tubastatin A = compound: CN1CCc2c(c3ccccc3n2Cc2ccc(C(=O)NO)cc2)C1 [Tubastatin A]
Method in brief: as §1

[6] = compound: CNC(=O)C1=CC=CC=C1NC2=NC(=NC=C2Cl)NC3=C(C=C(C=C3)N4CCOCC4)OC
Method in brief: as §1

[7] = compound: CNc1nc(-c2ccc3c(N)n[nH]c3c2)cc(N2C[C@@H](C(=O)NC3CCCCC3)CC[C@H]2C)n1
Method in brief: as §1

encorafenib = compound: COC(=O)N[C@@H](C)CNc1nccc(-c2cn(C(C)C)nc2-c2cc(Cl)cc(NS(C)(=O)=O)c2F)n1 [encorafenib]
Method in brief: as §1

[8] = compound: COC(=O)[C@H](CCSC)NC(=O)C1=C(C=C(C=C1)NC[C@H](CS)N)C2=CC=CC=C2
Method in brief: as §1

alisertib = compound: COc1cc(Nc2ncc3c(n2)-c2ccc(Cl)cc2C(c2c(F)cccc2OC)=NC3)ccc1C(=O)O [alisertib]
Method in brief: as §1

[9] = compound: COc1cc2nc(-c3cc(F)ccc3O)nc(N[C@@H]3CNC[C@H]3C(C)(C)O)c2cc1OC
Method in brief: as §1

gefitinib = compound: COc1cc2ncnc(Nc3ccc(F)c(Cl)c3)c2cc1OCCCN1CCOCC1 [gefitinib]
Method in brief: as §1

vemurafenib = compound: CCCS(=O)(=O)Nc1ccc(F)c(C(=O)c2c[nH]c3ncc(-c4ccc(Cl)cc4)cc23)c1F [vemurafenib]
Method in brief: as §1

defactinib = compound: CNC(=O)c1ccc(Nc2ncc(C(F)(F)F)c(NCc3nccnc3N(C)S(C)(=O)=O)n2)cc1 [defactinib]
Method in brief: as §1

Measured: log2 fold change

VCX3B (UniProt Q9H321)
inactive: [1] 0.003 | barasertib 0.009 | [2] -0.01 | volasertib 0.008 | [3] -0.099 | [4] 0.009 | [5] -0.022 | saracatinib 0.033 | sotrastaurin -0.069 | alvocidib -0.038 | Tubastatin A 0.015 | [6] -0.037 | [7] -0.009 | encorafenib 0.034 | [8] 0.126 | alisertib -0.059 | [9] 0 | gefitinib -0.057

USP46 (UniProt P62068)
inactive: [1] 0.009 | barasertib 0.051 | volasertib 0.145 | sotrastaurin -0.013 | [9] -0.051

VASN (UniProt Q6EMK4)
inactive: [2] 0.046 | [3] 0.023 | saracatinib 0.065 | Tubastatin A -0.161 | [6] -0.087 | [7] 0.096 | encorafenib 0.2 | [8] 0.02

URGCP (UniProt Q8TCY9)
inactive: vemurafenib 0.191 | barasertib -0.023 | [3] -0.069 | saracatinib 0 | Tubastatin A 0.168 | defactinib -0.19 | [7] -0.005 | alisertib 0.003 | gefitinib 0.006

Taken from the listing (3 entries):
VCX3B (UniProt Q9H321)
inactive: [1] 0.003 | barasertib 0.009 | [2] -0.01 | volasertib 0.008 | [3] -0.099 | [4] 0.009 | [5] -0.022 | saracatinib 0.033 | sotrastaurin -0.069 | alvocidib -0.038 | Tubastatin A 0.015 | [6] -0.037 | [7] -0.009 | encorafenib 0.034 | [8] 0.126 | alisertib -0.059 | [9] 0 | gefitinib -0.057

USP46 (UniProt P62068)
inactive: [1] 0.009 | barasertib 0.051 | volasertib 0.145 | sotrastaurin -0.013 | [9] -0.051

VASN (UniProt Q6EMK4)
inactive: [2] 0.046 | [3] 0.023 | saracatinib 0.065 | Tubastatin A -0.161 | [6] -0.087 | [7] 0.096 | encorafenib 0.2 | [8] 0.02

(continued)

VGF (UniProt O15240)
inactive: vemurafenib 0.051 | [2] -0.051 | saracatinib 0.056 | [6] 0.341 | defactinib -0.084 | [7] 0.005 | encorafenib -0.065 | [8] -0.103

VANGL2 (UniProt Q9ULK5)
inactive: [1] 0.059 | barasertib 0.033 | volasertib -0.007 | [3] -0.086 | [4] -0.128 | [5] -0.039 | saracatinib -0.097 | sotrastaurin -0.058 | alvocidib -0.055 | Tubastatin A -0.093 | [6] 0 | [7] 0.029 | [9] 0.065

USF3 (UniProt Q68DE3)
inactive: [1] 0.03 | barasertib 0.172 | [2] -0.096 | volasertib -0.067 | [6] -0.105 | encorafenib 0.079 | [8] -0.1 | [9] 0.047

USP40 isoform 3 (UniProt Q9NVE5)
inactive: [3] -0.151 | saracatinib 0.053 | sotrastaurin -0.035 | Tubastatin A 0.009 | [6] 0.016 | [7] -0.055 | alisertib -0.07 | gefitinib -0.026

UHRF2 (UniProt Q96PU4)
inactive: vemurafenib 0.095 | sotrastaurin -0.683 | defactinib -0.034

UPF3A (UniProt Q9H1J1)
inactive: [1] 0.048 | barasertib 0.119 | [2] 0.194 | volasertib -0.024 | [3] 0.049 | [4] -0.087 | [5] 0.002 | sotrastaurin 0.067 | alvocidib 0.004 | Tubastatin A 0.116 | [6] 0.07 | encorafenib 0.019 | [8] -0.048 | [9] -0.041

VCPKMT (UniProt Q9H867)
inactive: barasertib 0.237 | sotrastaurin 0.485 | [6] 0.09

USP20 (UniProt Q9Y2K6)
inactive: barasertib 0.067 | [2] -0.006 | [3] -0.1 | saracatinib -0.015 | sotrastaurin 0.119 | Tubastatin A 0.076 | [6] 0.041 | [7] -0.004 | encorafenib -0.055 | [8] -0.07
